# Laboratory results: PubChem BioAssay AID1347423 (Functional Genomics Laboratory (NCATS/FGL), 2020)
# Screen size: about 52,000 sequences; about 210 (0.4%) were called active.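 How the source made its calls: active means gene whose silencing raises cell survival under the drug, median off-target-corrected z-score across its silencing RNAs 2 or more; inactive means the rest.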 The list shows a part of the results.
# Experiment: Resistance to Poly (ADP-Ribose) Polymerase inhibitor: Gene Identification via Genome-wide siRNA Screen
# Conditions: mouse BRCA2 R2336H ES cells, olaparib, CellTiter-Glo viability; active compounds read high
# Method in brief: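 Mouse BRCA2 R2336H ES cells were reverse-transfected with siRNA (20 nM final), treated at 48 h with 500 nM olaparib, and read by CellTiter-Glo after 72 h. Scores: MAD-based z per siRNA, median per gene, seed off-target correction.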
row,Sequence,z-score
1,CCUUAAUAAACUAUGCUGCTT against 2810439M11Rik,inactive: -1.83
2,CGGCUGAACAUGGAACAACTT against Gpc3,inactive: 0.264
3,GGCGAAUUAAUUAACCGCCTT against Abcb10,inactive: 0.431
4,GCAAAUUCUCGGUGUCAAATT against Ezh2,inactive: 1.43
5,GGGUCAACUACUCACACUGTT against Crhr2,inactive: 0.0689
6,CGAGUCAUUACCAAUUACUTT against F13a,inactive: -0.503
7,GCCAUUUCGUUCUCUGGGUTT against Olfr161,inactive: 1.3
8,GGGCUAUGUGCUCUUUUGUTT against Edg6,inactive: 0.487
9,GGUCUCACCAUCUUAACCCTT against Catsper1,inactive: -1.49
10,GGACCAUUCUGGCUACUCATT against 6430502M16Rik,inactive: -3.27
11,GGAAAAAUAUGAGUCUUCCTT against Serpinb2,inactive: -0.309
12,CUAGCAGGGUCAGAAUGUUTT against Olfr331,inactive: -2.41
13,GGGACAAUACUUUCUUCUATT against Meig1,inactive: 0.409
14,GGAUAUCAAGAAGAGCCUGTT against Ptprr,inactive: 2.24
15,GGAGAUCUGUGAUGAGGUGTT against 0610006K04Rik,inactive: -2.24
16,GGUAUACUUCAAAAGAAGGTT against H2-Q1,inactive: -0.164
17,AUGCUUUGAUCAGUAUGAATT against V1rh17,inactive: -0.198
18,CCCAAGCCUUUAAACGGAGTT against Cbln3,inactive: -0.0423
19,CGGGCUAUGGAGUUGAAGATT against 2610024G14Rik,inactive: -0.546
20,GCAGUUACGUAGAAAGUCUTT against Prdx6-rs1,inactive: -1.37
21,GGAAACGUAUGAACAAUAATT against Sema4f,inactive: 1.89
22,CCAAAGAUCUCAAAUAAAGTT against Tlk2,inactive: 0.463
23,GGUCCUUCCUCAGAUCCCUTT against 5730457F11Rik,active: 1.66
24,GCUGGUAACAGAAUUUCUUTT against LOC213043,inactive: -0.274
25,GGACUAUGCAGUUUUAUUGTT against Chrac1,inactive: 0.995
26,GGCCAAGAUCCAAGACAAGTT against Uba52,inactive: -3.69
27,GUGUGUGUGCAGUCCUCAUTT against Olfr1269,inactive: -1.5

# Some of the entries above in a different format.
row | Sequence | z-score
1 | CCUUAAUAAACUAUGCUGCTT against 2810439M11Rik | inactive: -1.83
2 | CGGCUGAACAUGGAACAACTT against Gpc3 | inactive: 0.264
3 | GGCGAAUUAAUUAACCGCCTT against Abcb10 | inactive: 0.431
5 | GGGUCAACUACUCACACUGTT against Crhr2 | inactive: 0.0689
6 | CGAGUCAUUACCAAUUACUTT against F13a | inactive: -0.503
7 | GCCAUUUCGUUCUCUGGGUTT against Olfr161 | inactive: 1.3
8 | GGGCUAUGUGCUCUUUUGUTT against Edg6 | inactive: 0.487
10 | GGACCAUUCUGGCUACUCATT against 6430502M16Rik | inactive: -3.27
11 | GGAAAAAUAUGAGUCUUCCTT against Serpinb2 | inactive: -0.309
12 | CUAGCAGGGUCAGAAUGUUTT against Olfr331 | inactive: -2.41
13 | GGGACAAUACUUUCUUCUATT against Meig1 | inactive: 0.409
14 | GGAUAUCAAGAAGAGCCUGTT against Ptprr | inactive: 2.24
15 | GGAGAUCUGUGAUGAGGUGTT against 0610006K04Rik | inactive: -2.24
16 | GGUAUACUUCAAAAGAAGGTT against H2-Q1 | inactive: -0.164
17 | AUGCUUUGAUCAGUAUGAATT against V1rh17 | inactive: -0.198
18 | CCCAAGCCUUUAAACGGAGTT against Cbln3 | inactive: -0.0423
20 | GCAGUUACGUAGAAAGUCUTT against Prdx6-rs1 | inactive: -1.37
21 | GGAAACGUAUGAACAAUAATT against Sema4f | inactive: 1.89
23 | GGUCCUUCCUCAGAUCCCUTT against 5730457F11Rik | active: 1.66
24 | GCUGGUAACAGAAUUUCUUTT against LOC213043 | inactive: -0.274
25 | GGACUAUGCAGUUUUAUUGTT against Chrac1 | inactive: 0.995
26 | GGCCAAGAUCCAAGACAAGTT against Uba52 | inactive: -3.69
27 | GUGUGUGUGCAGUCCUCAUTT against Olfr1269 | inactive: -1.5

# Next part

row,Sequence,z-score
1,GGAUCUUCUUUGUUGGUGCTT against V1rc20,inactive: -0.487
2,GCCCAUGAUAAAAGAAGAATT against Pex1,inactive: -0.45
3,GGAUUGAGUGAACCCUCCCTT against Rpl36,inactive: -2.95
4,GGGAAGGAAGAAUUUAUUUTT against 6430571L13Rik,inactive: 1.19
5,GGUCACAUUCGCUCUCUUGTT against Olfr1155,inactive: 0.311
6,GCAUCACUGAUCUGUGAAUTT against 2610510J17Rik,inactive: -1.63
7,GGUGCACUGCCAAUUAUCUTT against Btbd11,inactive: -0.216
8,GGAAAACUUUCAAAGAGAUTT against Mc4r,inactive: 2.07
9,GGCGGAUGGACUAAUUUACTT against Zap70,inactive: -0.297
10,GGAGUGCUAUGACAAUUUUTT against Slc12a1,inactive: 2.2
11,GAACAAGGCGGACUUCCAATT against Dad1,inactive: -2.73
12,GCAGCACGAACUGAUGACGTT against Plcd3,inactive: -0.572
13,GGCCGUGUCAUUCAUUGGCTT against Adssl1,inactive: -1.34
14,GGAGCUCUUUUUGAACACUTT against Sgcg,inactive: 0.972
15,GGGUUGUCGUUCAGUUUACTT against Art2a,inactive: -0.383
16,GGACUUGAAAGACGAGAUATT against Cyp19a1,inactive: 0.0662
17,GGAGGUGGUGAAUAAGGAUTT against Mcm7,inactive: -2.2
18,GCAGUUGGGUUGGUAACUATT against Ash1l,inactive: -1.06
19,GGUGGAGUCAGUAUAAAUCTT against 2210023C10Rik,inactive: -0.321
20,GGUUGUUAAAGGAAAACUATT against Olfr1023,inactive: -0.715
21,GGUGAACUUCUUUGGUGCATT against Hsd11b2,inactive: 2.51
22,GGAGAAUCAAUGAGUAUCCTT against Apoe,inactive: -0.872
23,GGAGGAAGAAGACUCAGAATT against Prkag2,inactive: 1.96
24,GGAGGAAAAAAAACAGUGATT against Trim7,inactive: -1.36
25,GGAUUGUCAAAAUGUGGACTT against Smyd2,inactive: 0.805
26,GGACUACUCGGCCAUCAUUTT against Map3k6,inactive: -1.95
27,GCAGAGCUAGCUGAAUUGCTT against AK122209,inactive: 0.9

row,Sequence,z-score
1,GGGCCAUCUCUCAAUUAUGTT against Gga2,inactive: 0.0928
2,GGUAUAGCAAUUUCUACAATT against Chrna2,inactive: 0.476
3,GGCAUUCAGGAAGUUACUGTT against Krtcap1,inactive: 0.991
4,GGGCAGUCCGUUUCUUAACTT against Kptn,inactive: 0.972
5,GGUAAAAGCUACCAUUCAGTT against Ap2a2,inactive: 0.972
6,GGAACUGAUGAUCCUCAUGTT against Ube2c,inactive: -2.58
7,CCAUUGCAUUACCGGUACCTT against Kcna6,inactive: -0.83
8,CCACUUGUUAGGUUGCUGCTT against Neurog1,inactive: -1.62
9,CCCAAGGACUAUGAAGUUGTT against Col1a2,inactive: -1.05
10,GGUAUUAUGAGACAGGAAGTT against Pax5,inactive: -2.89
11,GGGCAUUUCCCAAAACAUATT against Elovl2,inactive: 0.546
12,CGAGAAUUCCUUGCUCUAATT against Mgat4a,inactive: -0.714
13,GGAGGUGUCAGAACACUGUTT against Csf1,inactive: -0.569
14,GGGUUGGAAAUAAAUAACGTT against Commd9,inactive: -0.38
15,CCAAGAUUUAUCAACUCAGTT against Aqp1,inactive: -0.0269
16,CCUCAGAGUGAUAACUAAATT against Ctdsp1,inactive: -0.169
17,GGACAAGAUAUCCAAGUGGTT against B930096L08Rik,inactive: -1.09
18,GGAGAACCUGUGUAAGAUUTT against 1700051E09Rik,inactive: 1.97
19,GGAAACUAGAUAGGACAAATT against Podn,inactive: -0.848
20,GGUUCUCUGUAGUUUAAAATT against Selp,inactive: 1.94
21,GGACAAGGCAACACAUACCTT against Csnk1a1,inactive: -2.97
22,GGAGUUUCUGGAAUGCAGGTT against Sec22l3,inactive: -0.484
23,GGAUCUGAAGUACAAGAAUTT against 2810441K11Rik,inactive: 4.33
24,GAUGGUGUCUAUCGAGAGCTT against Oxct2a,inactive: 0.659
25,GGUUUACCAGGAAAAUUGATT against Txnrd3,inactive: -0.846
26,GGAUUUUCUGAAGCAAUGCTT against Thedc1,inactive: -0.196
27,GCUUACCUAUUAGCAGCUUTT against Apg16l,inactive: -0.829

row,Sequence,z-score
1,GCAGUCGACAAAGUAUUUCTT against Msx3,inactive: -0.261
2,CCUCUCACGCUACAGCUGUTT against Nfatc1,inactive: 1.26
3,GCUGCCUGAGUCCAGUCUUTT against Ear14,inactive: -1.66
4,GGAUCACAUGAAAGGAUUATT against Dclre1c,inactive: 2.75
5,GCUACUCAGCUGCUUAAGCTT against Rpl7a,inactive: -3.06
6,GGAUGAAGGAAUCCAUGCATT against Pcdhga6,inactive: -1.01
7,GGCUCAGCUCAUGAACGACTT against Acvr2b,inactive: 0.356
8,GCCAUACAUAAACUACAAUTT against Gulo,inactive: 0.704
9,GCAACUGAACCUUCUGCUATT against Mopt,inactive: 0.936
10,GGUAAAUCAGAAGACUGAATT against Papd4,inactive: -1.9
11,CGCAAAGUGGACAAACGUATT against Kcne3,inactive: -0.197
12,GGGAUCCUCAGAAGGUGAATT against Hrbl,inactive: -0.159
13,GCAUCUCUCCAACCUUCCGTT against 2600011E07Rik,inactive: 0.799
14,CCACACUUCCCUUAUUUAATT against Arpc5,inactive: 0.723
15,GGAUUUUUUGAUUACUGUGTT against p,inactive: 1.74
16,GGUGUUCGAUGGACGUGAUTT against Bmp1,inactive: 0.439
17,CCAUGUUUAUGGCACGCUGTT against Postn,inactive: 1.2
18,GCAUAGCAAUGAAAAUCUATT against A930010E21Rik,inactive: -0.388
19,GGAAUGAGCUGAAUGCAAATT against Psmc5,inactive: -2.3
20,GGUGUAACACUCAUUUAUCTT against Ifitm3,inactive: 0.917
21,GGAGAAUGACUACUAUACUTT against Itm1,inactive: 0.0768
22,GCUUCUGGUGGUCAUAGCUTT against 3110005O21Rik,inactive: 1.39
23,GGGAAUGAAUUCAUCUAAATT against Tbc1d1,inactive: 0.267
24,GAUGAAACCAAAGAAUGGCTT against AI604832,inactive: -0.583
